US8697632B2 (priority 2008, dated 2014)
Not every detail of the peptide structures is certain; ends, links or a residue may be inferred.

Amino acid sequences for entries named in this document (tags omitted). Residues count along the entry.
UniProt P06213, 28-758 limits assumed: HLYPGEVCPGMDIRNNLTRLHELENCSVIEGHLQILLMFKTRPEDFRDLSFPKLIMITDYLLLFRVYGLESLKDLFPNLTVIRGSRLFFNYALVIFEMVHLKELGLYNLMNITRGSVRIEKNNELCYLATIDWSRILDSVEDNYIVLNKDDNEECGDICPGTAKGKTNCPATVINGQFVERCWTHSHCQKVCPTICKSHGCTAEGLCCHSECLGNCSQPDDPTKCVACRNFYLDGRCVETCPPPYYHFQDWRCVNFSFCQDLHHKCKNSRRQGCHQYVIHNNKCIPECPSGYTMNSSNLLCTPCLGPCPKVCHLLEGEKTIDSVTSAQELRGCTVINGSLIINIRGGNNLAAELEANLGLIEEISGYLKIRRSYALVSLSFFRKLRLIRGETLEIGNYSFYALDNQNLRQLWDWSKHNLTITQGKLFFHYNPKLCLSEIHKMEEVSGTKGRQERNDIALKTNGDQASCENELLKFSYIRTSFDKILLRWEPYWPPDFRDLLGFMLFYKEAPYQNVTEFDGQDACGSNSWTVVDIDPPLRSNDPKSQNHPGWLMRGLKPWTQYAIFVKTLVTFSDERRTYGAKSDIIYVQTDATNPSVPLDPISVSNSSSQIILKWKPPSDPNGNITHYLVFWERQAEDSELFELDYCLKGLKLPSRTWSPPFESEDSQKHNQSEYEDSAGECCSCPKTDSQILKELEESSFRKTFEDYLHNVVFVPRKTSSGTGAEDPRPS
UniProt P06213, 763-1382 limits assumed: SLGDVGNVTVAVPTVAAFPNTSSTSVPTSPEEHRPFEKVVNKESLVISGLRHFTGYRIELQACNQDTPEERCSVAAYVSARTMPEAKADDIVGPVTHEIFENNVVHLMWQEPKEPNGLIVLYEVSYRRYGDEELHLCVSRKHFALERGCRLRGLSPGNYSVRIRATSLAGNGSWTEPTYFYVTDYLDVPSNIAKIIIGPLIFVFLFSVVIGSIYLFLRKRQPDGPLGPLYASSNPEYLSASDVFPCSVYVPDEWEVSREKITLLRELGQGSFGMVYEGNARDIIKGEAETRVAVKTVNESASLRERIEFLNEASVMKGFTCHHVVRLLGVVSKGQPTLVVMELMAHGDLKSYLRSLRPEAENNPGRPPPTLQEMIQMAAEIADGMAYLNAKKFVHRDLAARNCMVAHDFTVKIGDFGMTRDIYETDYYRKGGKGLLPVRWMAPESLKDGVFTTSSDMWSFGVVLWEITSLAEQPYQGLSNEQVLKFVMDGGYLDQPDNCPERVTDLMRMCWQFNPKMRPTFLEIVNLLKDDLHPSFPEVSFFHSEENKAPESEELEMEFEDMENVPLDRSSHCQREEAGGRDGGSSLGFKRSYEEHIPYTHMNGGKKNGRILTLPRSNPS

What was measured:
[1] = target: T1, Insulin Receptor (Homo sapiens, UniProt P06213); experiment: Insulin receptor competition binding assay (scintillation proximity); set-up: expressed in transfected cells; plasma membrane fragments; settings: relative to native insulin
[2] = target: T1, Insulin Receptor; experiment: Insulin receptor phosphorylation assay in receptor transfected HEK293 cells; type: cell-based; set-up: expressed in transfected cells; host or cells: HEK293; settings: Table 10; IGF-1 receptor vs insulin receptor phosphorylation

## CC[C@H](C)[C@H](NC(=O)CNC(=O)[C@@H]1CCCN1C(=O)[C@H](C)N)C(=O)N[C@H](C(=O)N[C@@H](CC(=O)O)C(=O)N[C@@H](CCC(=O)O)C(=O)N[C@H]1CSSC[C@@H]2NC(=O)[C@H](CO)NC(=O)[C@H](CCCNC(=N)N)NC(=O)[C@H](Cc3ccccc3)NC(=O)[C@H](CSSC[C@H](NC(=O)[C@H](CC(C)C)NC(=O)[C@@H](NC(=O)[C@H](CCC(=O)O)NC(=O)[C@@H]3CCCN3C(=O)CN)[C@@H](C)O)C(=O)NCC(=O)N[C@@H](C)C(=O)N[C@@H](CCC(=O)O)C(=O)N[C@@H](CC(C)C)C(=O)N[C@@H](C(C)C)C(=O)N[C@@H](CC(=O)O)C(=O)N[C@@H](C)C(=O)N[C@@H](CC(C)C)C(=O)N[C@@H](Cc3ccc(O)cc3)C(=O)N[C@@H](CC(C)C)C(=O)N[C@@H](C(C)C)C(=O)N[C@H](C(=O)NCC(=O)N[C@@H](CC(=O)O)C(=O)N[C@@H](CCCNC(=N)N)C(=O)NCC(=O)N[C@@H](Cc3ccccc3)C(=O)N[C@@H](Cc3ccc(O)cc3)C(=O)N[C@@H](Cc3ccccc3)C(=O)N[C@@H](CC(N)=O)C(=O)N[C@@H](CCCCN)C(=O)N3CCC[C@H]3C(=O)N[C@H](C(N)=O)[C@@H](C)O)CSSC[C@@H](C(=O)N[C@@H](C)C(N)=O)NC(=O)[C@H](Cc3ccc(O)cc3)NC(=O)[C@H](CCSC)NC(=O)[C@H](CCC(=O)O)NC(=O)[C@H](CC(C)C)NC(=O)[C@H](CCCNC(=N)N)NC(=O)[C@H](CCCNC(=N)N)NC(=O)[C@H](CC(C)C)NC(=O)[C@H](CC(=O)O)NC2=O)NC1=O)C(C)C [IGF1(YL)A-1,0^B16,17(AlaPro)]
[1]
  insulin receptor binding (in words): substantially reduced affinity

## CC[C@H](C)[C@H](NC(=O)CN)C(=O)N[C@H](C(=O)N[C@@H](CC(=O)O)C(=O)N[C@@H](CCC(=O)O)C(=O)N[C@H]1CSSC[C@@H]2NC(=O)[C@H](CO)NC(=O)[C@H](CCCNC(=N)N)NC(=O)[C@H](Cc3ccccc3)NC(=O)[C@H](CSSC[C@H](NC(=O)[C@H](CC(C)C)NC(=O)[C@@H](NC(=O)[C@H](CCC(=O)O)NC(=O)[C@@H]3CCCN3C(=O)CN)[C@@H](C)O)C(=O)NCC(=O)N[C@@H](C)C(=O)N[C@@H](CC(=O)O)C(=O)N[C@@H](CC(C)C)C(=O)N[C@@H](C(C)C)C(=O)N[C@@H](CC(=O)O)C(=O)N[C@@H](C)C(=O)N[C@@H](CC(C)C)C(=O)N[C@@H](Cc3ccc(O)cc3)C(=O)N[C@@H](CC(C)C)C(=O)N[C@@H](C(C)C)C(=O)N[C@H](C(=O)NCC(=O)N[C@@H](CC(=O)O)C(=O)N[C@@H](CCCNC(=N)N)C(=O)NCC(=O)N[C@@H](Cc3ccccc3)C(=O)N[C@@H](Cc3ccc(O)cc3)C(N)=O)CSSC[C@@H](C(=O)N[C@@H](C)C(=O)O)NC(=O)[C@H](Cc3ccc(O)cc3)NC(=O)[C@H](CCSC)NC(=O)[C@H](CCC(=O)O)NC(=O)[C@H](CC(C)C)NC(=O)[C@H](CCCNC(=N)N)NC(=O)[C@H](CCCNC(=N)N)NC(=O)[C@H](CC(C)C)NC(=O)[C@H](CC(=O)O)NC2=O)NC1=O)C(C)C [IGF-1 A:B(D10Y16L17) DPI A—COOH]
[2]
  Selctive Ratio: 9.75

## CC[C@H](C)[C@H](NC(=O)CN)C(=O)N[C@H](C(=O)N[C@@H](CC(=O)O)C(=O)N[C@@H](CCC(=O)O)C(=O)N[C@H]1CSSC[C@@H]2NC(=O)[C@H](CO)NC(=O)[C@H](CCCNC(=N)N)NC(=O)[C@H](Cc3ccccc3)NC(=O)[C@H](CSSC[C@H](NC(=O)[C@H](CC(C)C)NC(=O)[C@@H](NC(=O)[C@H](CCC(=O)O)NC(=O)[C@@H]3CCCN3C(=O)CN)[C@@H](C)O)C(=O)NCC(=O)N[C@@H](C)C(=O)N[C@@H](CCC(=O)O)C(=O)N[C@@H](CC(C)C)C(=O)N[C@@H](C(C)C)C(=O)N[C@@H](CC(=O)O)C(=O)N[C@@H](C)C(=O)N[C@@H](CC(C)C)C(=O)N[C@@H](Cc3ccc(O)cc3)C(=O)N[C@@H](CC(C)C)C(=O)N[C@@H](C(C)C)C(=O)N[C@H](C(=O)NCC(=O)N[C@@H](CC(=O)O)C(=O)N[C@@H](CCCNC(=N)N)C(=O)NCC(=O)N[C@@H](Cc3ccccc3)C(=O)N[C@@H](Cc3ccc(O)cc3)C(=O)N[C@@H](Cc3ccccc3)C(=O)N[C@@H](CC(N)=O)C(=O)N[C@@H](CCCCN)C(=O)N3CCC[C@H]3C(=O)N[C@H](C(N)=O)[C@@H](C)O)CSSC[C@@H](C(=O)N[C@@H](C)C(N)=O)NC(=O)[C@H](Cc3ccc(O)cc3)NC(=O)[C@H](CCSC)NC(=O)[C@H](CCC(=O)O)NC(=O)[C@H](CC(C)C)NC(=O)[C@H](CCCNC(=N)N)NC(=O)[C@H](CCCNC(=N)N)NC(=O)[C@H](CC(C)C)NC(=O)[C@H](CC(=O)O)NC2=O)NC1=O)C(C)C [IGF1(Y^B16L^B17)]
[1]
  insulin receptor binding (in words): highly potent insulin analog

## CC[C@H](C)[C@H](NC(=O)CN)C(=O)N[C@H](C(=O)N[C@@H](CC(=O)O)C(=O)N[C@@H](CCC(=O)O)C(=O)N[C@H]1CSSC[C@@H]2NC(=O)[C@H](CO)NC(=O)[C@H](C)NC(=O)[C@H](Cc3c[nH]cn3)NC(=O)[C@H](CSSC[C@H](NC(=O)[C@H](CC(C)C)NC(=O)[C@H](Cc3c[nH]cn3)NC(=O)[C@H](CCC(=O)O)NC(=O)[C@@H]3CCCN3C(=O)CN)C(=O)NCC(=O)N[C@@H](C)C(=O)N[C@@H](CC(=O)O)C(=O)N[C@@H](CC(C)C)C(=O)N[C@@H](C(C)C)C(=O)N[C@@H](CC(=O)O)C(=O)N[C@@H](C)C(=O)N[C@@H](CC(C)C)C(=O)N[C@@H](Cc3ccc(O)cc3)C(=O)N[C@@H](CC(C)C)C(=O)N[C@@H](C(C)C)C(=O)N[C@H](C(=O)NCC(=O)N[C@@H](CC(=O)O)C(=O)N[C@@H](CCCNC(=N)N)C(=O)NCC(=O)N[C@@H](Cc3ccccc3)C(=O)N[C@@H](Cc3ccc(O)cc3)C(N)=O)CSSC[C@@H](C(=O)N[C@@H](CC(N)=O)C(=O)O)NC(=O)[C@H](Cc3ccc(O)cc3)NC(=O)[C@H](CCSC)NC(=O)[C@H](CCC(=O)O)NC(=O)[C@H](CC(C)C)NC(=O)[C@H](CCCNC(=N)N)NC(=O)[C@H](CCCNC(=N)N)NC(=O)[C@H](CC(C)C)NC(=O)[C@H](CC(=O)O)NC2=O)NC1=O)C(C)C
[2]
  Selctive Ratio: 2.81
